Results taken from PubChem BioAssay AID2551 (National Center for Advancing Translational Sciences (NCATS), 2010).
Out of some 310,000 compounds screened, about 17,000 (5.5%) were called active. The inconclusive results got no clear call from the source; some entries with a clear call stand among them for comparison. The call rests on the fitted dose curve; in most records, active means well fitted inhibition curve with a large enough effect; inconclusive means small, poorly fitted or top-dose-only effect, or effect the other way; inactive means no such curve, though single readings can be large or run the other way. Potencies beside an inconclusive call are fits to weak or partial responses and may not hold up.

Amino acid sequences for entries named in this document (tags omitted). A change or cut given only in a name is not applied to a line headed by its entry.
UniProt P51450: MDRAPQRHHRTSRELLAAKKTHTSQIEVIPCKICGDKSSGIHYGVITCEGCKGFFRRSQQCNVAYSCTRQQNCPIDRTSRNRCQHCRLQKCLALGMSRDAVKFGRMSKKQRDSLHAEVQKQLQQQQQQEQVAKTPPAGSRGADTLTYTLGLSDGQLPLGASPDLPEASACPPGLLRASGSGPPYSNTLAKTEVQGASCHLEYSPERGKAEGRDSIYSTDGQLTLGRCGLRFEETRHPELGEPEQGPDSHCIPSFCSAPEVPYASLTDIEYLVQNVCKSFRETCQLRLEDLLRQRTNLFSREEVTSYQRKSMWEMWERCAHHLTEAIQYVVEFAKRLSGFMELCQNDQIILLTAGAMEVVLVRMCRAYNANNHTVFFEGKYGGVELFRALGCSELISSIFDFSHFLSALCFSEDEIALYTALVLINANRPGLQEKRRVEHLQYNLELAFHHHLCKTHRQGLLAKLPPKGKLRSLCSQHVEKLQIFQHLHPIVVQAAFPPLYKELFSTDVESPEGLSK

molecular target: Nuclear receptor ROR-gamma (Mus musculus) (UniProt P51450); test: qHTS for inhibitors of ROR gamma transcriptional activity; conditions: Drosophila S2 Gal4-RORgamma UAS-luciferase reporter, 20 h; activity change, negative = inhibition: at 53.6 µM (top of the series); further: nearly all actives have a fitted effect of over 60% in size
Procedure, shortened: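 Luminescence from a UAS-regulated Photinus luciferase reporter in stably transfected Drosophila Schneider cells is measured; decreased signal marks ROR gamma inhibition. Fusion expression is induced by 700 uM copper sulfate for 20 hr.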
On the % scale 0 is the no-effect control and ±100 the full control effect; potency means the concentration at half of the fitted maximal effect.

Potency, active:
O=C(CCl)N(c1ccccc1)C1CCCCC1 0.708 µM, CCCn1c(C(O)c2ccc(C)cc2)nc2ccccc21 (centres undefined) 2.82 µM, O=C(N/N=C/c1ccc([N+](=O)[O-])s1)c1cccc(Br)c1 1.12 µM, O=C(COc1ccc(Cl)cc1)c1ccc(O)cc1O 0.158 µM, C=CCNC(=S)NN=C1CCCCCCC1 0.355 µM, O=C(CCSc1ccccn1)c1ccccc1 20 µM, NNC(=S)NCc1ccccc1 2.82 µM, Cc1ccc(/C=N/n2c(-c3ccc(Cl)cc3)n[nH]c2=S)s1 1.41 µM, Cc1ccccc1NC(=S)N=Nc1c(O)n(C)c2ccc(S(=O)(=O)N3CCOCC3)cc12 0.316 µM, CS(=O)(=O)c1nc(-c2ccccc2)cc(C(F)(F)F)n1 0.501 µM, CCN(CC)c1ccc(/C=N/NC(=O)Nc2nonc2N)cc1 7.08 µM, Cc1cc(NC(=S)N(CCN2CCOCC2)Cc2ccccc2F)ccc1Cl 10 µM, COC(=O)C1=NOC2(C=C(Br)C(OC)=C(Br)C2=O)C1 (centres undefined) 1.78 µM, O=C(N/N=C/C=C\c1cccc([N+](=O)[O-])c1)c1cccnc1 6.31 µM, Cc1nn(C)cc1C(=O)NNC(=S)Nc1ccc(Cl)cc1 11.2 µM, Cc1sc2nc(CN3CCC(C)CC3)nc(Cl)c2c1C 17.8 µM, Cc1cc(C)c(S(=O)(=O)Nc2cccc3cccnc23)c(C)c1 0.0891 µM, O=C1C(=O)c2ccc(-c3ccccc3)cc2-c2ccccc21 3.16 µM, CCc1nnc(NC(=O)c2cc(Cl)ccn2)s1 4.47 µM, CC(NC(=S)NC(=O)c1ccccc1Br)c1ccccc1 (centres undefined) 6.31 µM, CC(C)(C)C1CCC2(CC1)NC(=S)N(c1ccccc1)N2 (centres undefined) 10 µM, C=CC[n+]1ccc(/C=C2\C=Cc3cc(C)ccc3N2CC)c2ccccc21 1.26 µM, COc1ccc(N=Nc2ccc(O)c3ncccc23)cc1 0.126 µM, CC(C)(C)OC(=O)CNC(=O)c1nc[nH]c1C(=O)N1CCc2ccccc2C1 11.2 µM, Cc1ccc(Oc2c(C(N)=O)cc([N+](=O)[O-])cc2[N+](=O)[O-])cc1 2.82 µM, CC(=O)Nc1nc2ccccc2n1Cc1ccc(Cl)cc1 1.12 µM, O=C(Nc1ccc(Cl)cc1C(=O)Nc1ccccn1)c1ccco1 12.6 µM, O=C(O)c1ccc(S(=O)(=O)c2ccc3c(c2)C(=O)N(NC(=O)c2ccc(O)cc2)C3=O)cc1 6.31 µM, C=CCNc1nc(Nc2ccccc2F)nc(OCC)n1 12.6 µM, CCOc1cc(CNn2cn[nH]c2=S)cc(Cl)c1OCc1ccccc1F 7.94 µM, CN(C)NC(=S)Nc1ccc(S(=O)(=O)N2CCCCC2)cc1 2.82 µM

Potency, inconclusive:
CCCc1c(C(=O)N/N=C/c2sccc2C)nnn1-c1nonc1N 0.891 µM [inhibitor, full curve, poor fit], COc1cccc(C2CC(c3ccc(C)cc3)Nc3nc(N)nn32)c1 (centres undefined) 0.0045 µM [activator, full curve, poor fit], Oc1ccc(C2C[C@H]3CC[C@@H]2C3)cc1O (some centres undefined) 12.6 µM [inhibitor, partial curve], CSc1ccc(Cl)c(C(=O)NCCOc2ccccc2)c1 7.94 µM [activator, partial curve], Cc1nn(CC(=O)N2CCN(c3cccc(C(F)(F)F)c3)CC2)c(=O)c2cccn12 14.1 µM [activator, single point], Fc1ccc(NC(=S)N2CCN(c3ncccn3)CC2)cc1 3.16 µM [inhibitor, single point], CCN(CC)S(=O)(=O)c1cc(C(=O)OCC(=O)Nc2cccc(C)c2C)ccc1F 11.2 µM [activator, single point], CCOc1ccc(OCC)c(NC(=O)Nc2ccc3c(c2)N(C)C(=O)CS3)c1 10 µM [activator, single point], CC(=O)Nc1cc(NC(=O)C2C3C=CC(C3)C2C(=O)O)ccc1Cl (centres undefined) 0.708 µM [inhibitor, full curve, poor fit], CCC(=O)c1cc(F)ccc1OCC(=O)N1CCN(c2ccc(F)cc2)CC1 10 µM [activator, partial curve], COc1ccc(OCC(=O)O/N=C(\N)Cc2ccc(Cl)cc2Cl)cc1 10 µM [activator, partial curve], OCCN1CCN(CCCN2c3ccccc3C=Cc3ccccc32)CC1 11.2 µM [inhibitor, single point], OC(CC1CC12c1ccccc1-c1ncccc12)(c1ccccc1)c1ccccc1 (centres undefined) 0.355 µM [inhibitor, full curve, poor fit], Cc1ccc(C(=O)NCc2ccco2)cc1S(=O)(=O)Nc1cccc(Cl)c1 35.5 µM [inhibitor, single point], CCN1CCCC1Cn1c(-c2ccccc2)nc2c(NC3CCCCC3)nc(C)nc21 (centres undefined) 15.8 µM [inhibitor, single point], C=CCNC(=O)/C(C#N)=C\c1cc(Cl)c(OCC)c(OC)c1 35.5 µM [inhibitor, single point], Cc1ccc(C(C)CCN2CCC(n3nccc3NC(=O)c3ccccc3)CC2)o1 (centres undefined) 5.01 µM [inhibitor, partial curve], C/C(=N\OCC(=O)Nc1ccc(Br)cc1)c1cccs1 35.5 µM [activator, single point], COc1ccccc1NC(=O)c1sc2nc(N3CCOCC3)c3c(c2c1N)CCCC3 17.8 µM [activator, single point], CC1(C(=O)N2CCN(c3ccccc3)CC2)CC1(Cl)Cl (centres undefined) 3.16 µM [inhibitor, single point], CC(C)c1ccc(NC2CCCN(C(=O)CC3CCCC3)C2)cc1 (centres undefined) 12.6 µM [activator, partial curve], O=C(NC1CCCC1)C(c1ccncc1)N(Cc1ccco1)C(=O)c1ccc(-c2ccccc2)[nH]1 (centres undefined) 35.5 µM [inhibitor, single point], COc1ccc(-n2ncc3c2CC(C)(C)CC3NC(=O)c2ocnc2C)cc1 (centres undefined) 17.8 µM [activator, single point], CCCc1c(C(=O)N/N=C/c2cccs2)nnn1-c1nonc1N 2.24 µM [inhibitor, partial curve], COc1ccccc1NCc1cc(=O)oc2c(C)c(O)ccc12 12.6 µM [activator, partial curve, poor fit], CN(c1ccc(C(=O)Nc2ccc3c(c2)OCCO3)cc1)S(C)(=O)=O 1.58 µM [activator, partial curve, poor fit], CCOC(=O)c1cc(-c2ccncc2)nc2c1c(C)nn2-c1ccccn1 3.16 µM [inhibitor, single point], C=CCNC(=S)NNC(=O)c1csc(C)c1C 1.58 µM [inhibitor, full curve], COc1ccc(NC(=O)CN2CCN(CC(=O)Nc3cc(OC)cc(OC)c3)CC2)cc1 15.8 µM [inhibitor, single point], COc1ccc(C(=O)Nc2ccc(N3CCOCC3)cc2)cc1OC 1.58 µM [activator, partial curve, poor fit], CCc1cc2cc(C)cc(C)c2nc1SCC(=O)N1CCCC1 0.447 µM [activator, single point], O=C(CN1C(=O)NC2(CCCCCC2)C1=O)c1ccc2c(c1)OCCO2 0.1 µM [activator, full curve, poor fit], CCOc1ccc(S(=O)(=O)Nc2ccc(F)cc2)c(C)c1C 20 µM [inhibitor, single point], Cc1ccc(C(=O)/C=C/c2ccc(-c3ccccc3[N+](=O)[O-])o2)cc1 11.2 µM [activator, partial curve]

Activity change, negative = inhibition, inactive:
CCN(CC)CCCNC(=O)CN1N=C(c2ccc(OC)cc2)CCC1=O 13%, Cc1ccccc1OCC(=O)NCC(=O)OCc1ccc(Br)cc1 1.26%, CC1CCC(C(=O)O)NC1c1cccc(N2CCCC2=O)c1 (centres undefined) 5.51% [at 10 µM], Cc1ccccc1NC(=O)Cc1nc(CCl)cs1 -39.6%, Cc1ccc(C(=O)Nc2ccc(C(=O)N3CCCCC3)cc2)cc1 14.6%, CCc1c(C)nc(N2CCN(c3ccccc3F)CC2)[nH]c1=O 0.575%, COC(=O)Cn1c(CN2CCc3ccccc3C2)nc2c1c(=O)n(C)c(=O)n2C 5.75%, C=CCN(C(=O)c1ccc(Cl)cc1)c1ccccc1C(=O)NCC(=O)O 8.15%, CCNc1c(NC(C)=O)c(=O)oc2ccccc12 -17.4%, N#CCC(=O)N/N=C/c1cn(Cc2ccccc2C#N)c2ccccc12 -14.2%, CCOC(=O)Cc1nc(-c2ccc(Cl)cc2)n[nH]1 6.83%, Cc1cc(C(=O)NCc2csc(-c3ccccc3)n2)no1 32.5%, COc1ccc(CN2C(=O)c3cccnc3C2=O)cc1S(=O)(=O)N1CCOc2ccc(C)cc21 -22%, O=C(/C=C/c1ccccc1Cl)Nn1cnc2ccccc2c1=O 26.3%
